No constants are given. Whether binding was seen depends on the method and setting. Binding seen in cells or lysates may run through a third protein. Some binding calls cover weakened binding; strength is not graded here.
Target: T1, mCherry-RAD54L2^WT (UniProt Q9Y4B4)
T1 sequence: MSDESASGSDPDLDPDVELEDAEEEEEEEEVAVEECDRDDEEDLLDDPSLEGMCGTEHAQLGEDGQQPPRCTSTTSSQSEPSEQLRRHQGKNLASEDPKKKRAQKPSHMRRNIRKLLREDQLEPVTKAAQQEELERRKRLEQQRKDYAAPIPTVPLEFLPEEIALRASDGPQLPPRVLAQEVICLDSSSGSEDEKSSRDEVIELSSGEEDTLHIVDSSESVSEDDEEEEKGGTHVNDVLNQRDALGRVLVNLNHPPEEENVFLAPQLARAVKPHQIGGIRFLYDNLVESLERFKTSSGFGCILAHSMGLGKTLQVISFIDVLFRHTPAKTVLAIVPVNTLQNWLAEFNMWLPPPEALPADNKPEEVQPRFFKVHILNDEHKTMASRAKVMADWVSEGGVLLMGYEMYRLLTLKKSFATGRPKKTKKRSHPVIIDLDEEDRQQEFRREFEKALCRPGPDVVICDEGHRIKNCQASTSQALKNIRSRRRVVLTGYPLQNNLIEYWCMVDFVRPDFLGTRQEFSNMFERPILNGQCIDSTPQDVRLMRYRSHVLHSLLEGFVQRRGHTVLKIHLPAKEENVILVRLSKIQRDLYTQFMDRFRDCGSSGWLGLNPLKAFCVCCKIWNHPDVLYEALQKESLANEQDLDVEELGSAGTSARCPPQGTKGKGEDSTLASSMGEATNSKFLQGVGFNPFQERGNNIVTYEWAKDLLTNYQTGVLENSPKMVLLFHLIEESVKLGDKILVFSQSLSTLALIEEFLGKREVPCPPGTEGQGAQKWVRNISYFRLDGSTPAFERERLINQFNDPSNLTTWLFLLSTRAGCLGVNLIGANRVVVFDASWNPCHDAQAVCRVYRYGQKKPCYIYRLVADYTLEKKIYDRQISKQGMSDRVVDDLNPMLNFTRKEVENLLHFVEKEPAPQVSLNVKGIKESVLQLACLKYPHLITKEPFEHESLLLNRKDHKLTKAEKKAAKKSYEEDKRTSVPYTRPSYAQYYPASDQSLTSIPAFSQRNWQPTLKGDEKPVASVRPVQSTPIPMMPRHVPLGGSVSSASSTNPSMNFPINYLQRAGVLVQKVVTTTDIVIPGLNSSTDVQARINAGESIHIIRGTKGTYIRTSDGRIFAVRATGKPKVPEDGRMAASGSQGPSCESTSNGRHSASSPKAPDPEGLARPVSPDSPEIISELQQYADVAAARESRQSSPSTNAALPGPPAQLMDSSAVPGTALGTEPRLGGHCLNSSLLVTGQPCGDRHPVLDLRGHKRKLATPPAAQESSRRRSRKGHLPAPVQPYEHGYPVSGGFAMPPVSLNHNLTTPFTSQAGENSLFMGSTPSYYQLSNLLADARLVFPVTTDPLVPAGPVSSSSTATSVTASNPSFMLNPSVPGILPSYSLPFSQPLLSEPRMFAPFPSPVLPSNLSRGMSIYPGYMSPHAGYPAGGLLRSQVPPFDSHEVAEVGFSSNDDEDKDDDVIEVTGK
Assay: co-IP; mCherry IP on RFP-Trap magnetic beads, 2 hours at 4°C, from benzonase-treated extracts of RPE-1 cells, untreated or treated with 100 μM etoposide for 1 hour (also G1- or S-phase synchronized cells); IP buffer 20 mM tris-HCl pH 7.5, 150 mM NaCl, 2 mM MgCl2, 10% glycerol, 0.5% NP-40, 20 mM NEM; Western blot

B1: zinc finger protein associated with TDP2 and TOP2 (ZATT/ZNF451) (enzyme, UniProt Q9Y4E5 1-1061)
chain: MGDPGSEIIESVPPAGPEASESTTDENEDDIQFVSEGPLRPVLEYIDLVSSDDEEPSTSYTDENIKRKDHIDYQKDKVALTLARLARHVEVEKQQKEEKNRAFREKIDFQHAHGLQELEFIRGHSDTEAARLCVDQWLKMPGLKTGTINCGTKSSFRRGGHTWVSGKPILCPIMHCNKEFDNGHLLLGHLKRFDHSPCDPTITLHGPFFSSFACVVCYKKFVTQQQYRDHLFDKEATDDGHNNNLLPQIIQCFACPNCFLLFSRKEECSKHMSGKNHFHQSFKLGDNKGIAHPISFPSFAKKLLISLCKDVPFQVKCVACHKTLRSHMELTAHFRVHCRNAGPVAVAEKSITQVAEKFILRGYCPDCNQVFVDETSTQNHKQNSGHKVRVINSVEESVLLYCHSSEGNKDPSSDLHLLLDQSKFSSLKRTMSIKESSSLECIAIPKKKMNLKDKSHEGVACVQKEKSVVKTWFCECNQRFPSEDAVEKHVFSANTMGYKCVVCGKVCDDSGVIRLHMSRIHGGAHLNNFLFWCRTCKKELTRKDTIMAHVTEFHNGHRYFYEMDEVEGETLPSSSTTLDNLTANKPSSAITVIDHSPANSSPRGKWQCRICEDMFDSQEYVKQHCMSLASHKFHRYSCAHCRKPFHKIETLYRHCQDEHDNEIKIKYFCGLCDLIFNVEEAFLSHYEEHHSIDYVFVSEKTETSIKTEDDFPVIETSNQLTCGCRESYICKVNRKEDYSRCLQIMLDKGKLWFRCSLCSATAQNLTDMNTHIHQVHKEKSDEEEQQYVIKCGTCTKAFHDPESAQQHFHRKHCFLQKPSVAHFGSEKSNLYKFTASASHTERKLKQAINYSKSLDMEKGVENDLSYQNIEEEIVELPDLDYLRTMTHIVFVDFDNWSNFFGHLPGHLNQGTFIWGFQGGNTNWKPPLNCKIYNYLNRIGCFFLHPRCSKRKDAADFAICMHAGRLDEQLPKQIPFTILSGDQGFLELENQFKKTQRPAHILNPHHLEGDMMCALLNSISDTTKECDSDDNMGAKNTSIGEEFISTEDVELEEAIRRSLEEM
**Q.** B1 was tested. Which binding did it give?
**A.** The binding was “binds”.
